The results in this text go back to the supplement of paper PMC6411743.

Amino acid sequences for entries named in this document (tags omitted). A change or cut given only in a name is not applied to a line headed by its entry.
UniProt Q96EK5: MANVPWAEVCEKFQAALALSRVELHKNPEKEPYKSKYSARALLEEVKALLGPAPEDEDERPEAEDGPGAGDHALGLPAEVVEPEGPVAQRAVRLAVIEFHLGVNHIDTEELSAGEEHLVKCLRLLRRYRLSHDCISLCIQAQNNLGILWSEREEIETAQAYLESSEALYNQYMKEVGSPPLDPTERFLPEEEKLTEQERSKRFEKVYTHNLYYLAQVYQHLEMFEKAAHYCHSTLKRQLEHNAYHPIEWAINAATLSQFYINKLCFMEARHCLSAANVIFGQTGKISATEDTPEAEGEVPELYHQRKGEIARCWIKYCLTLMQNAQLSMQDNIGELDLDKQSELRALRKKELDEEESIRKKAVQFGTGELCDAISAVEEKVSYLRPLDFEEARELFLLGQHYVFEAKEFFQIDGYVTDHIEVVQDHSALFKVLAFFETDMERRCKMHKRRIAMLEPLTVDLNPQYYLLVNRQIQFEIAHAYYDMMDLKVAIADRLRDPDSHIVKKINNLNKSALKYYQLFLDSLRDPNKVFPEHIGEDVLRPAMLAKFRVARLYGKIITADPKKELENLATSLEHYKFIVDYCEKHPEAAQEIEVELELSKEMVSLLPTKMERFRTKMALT
UniProt Q96C86: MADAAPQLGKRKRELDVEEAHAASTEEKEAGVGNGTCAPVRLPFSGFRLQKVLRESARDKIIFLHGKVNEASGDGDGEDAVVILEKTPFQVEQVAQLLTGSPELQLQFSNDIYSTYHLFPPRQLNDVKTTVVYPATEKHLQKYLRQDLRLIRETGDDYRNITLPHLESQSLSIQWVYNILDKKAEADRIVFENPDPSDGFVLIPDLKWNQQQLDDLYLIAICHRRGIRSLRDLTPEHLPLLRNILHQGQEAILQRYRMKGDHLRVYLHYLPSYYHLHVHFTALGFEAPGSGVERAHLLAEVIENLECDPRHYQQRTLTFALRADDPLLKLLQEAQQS
UniProt Q92572: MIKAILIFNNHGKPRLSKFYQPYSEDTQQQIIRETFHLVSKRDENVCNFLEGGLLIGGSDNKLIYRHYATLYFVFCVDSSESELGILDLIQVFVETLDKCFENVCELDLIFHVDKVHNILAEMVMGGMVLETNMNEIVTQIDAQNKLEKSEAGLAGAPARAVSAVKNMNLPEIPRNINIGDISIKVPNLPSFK
UniProt Q96JH7: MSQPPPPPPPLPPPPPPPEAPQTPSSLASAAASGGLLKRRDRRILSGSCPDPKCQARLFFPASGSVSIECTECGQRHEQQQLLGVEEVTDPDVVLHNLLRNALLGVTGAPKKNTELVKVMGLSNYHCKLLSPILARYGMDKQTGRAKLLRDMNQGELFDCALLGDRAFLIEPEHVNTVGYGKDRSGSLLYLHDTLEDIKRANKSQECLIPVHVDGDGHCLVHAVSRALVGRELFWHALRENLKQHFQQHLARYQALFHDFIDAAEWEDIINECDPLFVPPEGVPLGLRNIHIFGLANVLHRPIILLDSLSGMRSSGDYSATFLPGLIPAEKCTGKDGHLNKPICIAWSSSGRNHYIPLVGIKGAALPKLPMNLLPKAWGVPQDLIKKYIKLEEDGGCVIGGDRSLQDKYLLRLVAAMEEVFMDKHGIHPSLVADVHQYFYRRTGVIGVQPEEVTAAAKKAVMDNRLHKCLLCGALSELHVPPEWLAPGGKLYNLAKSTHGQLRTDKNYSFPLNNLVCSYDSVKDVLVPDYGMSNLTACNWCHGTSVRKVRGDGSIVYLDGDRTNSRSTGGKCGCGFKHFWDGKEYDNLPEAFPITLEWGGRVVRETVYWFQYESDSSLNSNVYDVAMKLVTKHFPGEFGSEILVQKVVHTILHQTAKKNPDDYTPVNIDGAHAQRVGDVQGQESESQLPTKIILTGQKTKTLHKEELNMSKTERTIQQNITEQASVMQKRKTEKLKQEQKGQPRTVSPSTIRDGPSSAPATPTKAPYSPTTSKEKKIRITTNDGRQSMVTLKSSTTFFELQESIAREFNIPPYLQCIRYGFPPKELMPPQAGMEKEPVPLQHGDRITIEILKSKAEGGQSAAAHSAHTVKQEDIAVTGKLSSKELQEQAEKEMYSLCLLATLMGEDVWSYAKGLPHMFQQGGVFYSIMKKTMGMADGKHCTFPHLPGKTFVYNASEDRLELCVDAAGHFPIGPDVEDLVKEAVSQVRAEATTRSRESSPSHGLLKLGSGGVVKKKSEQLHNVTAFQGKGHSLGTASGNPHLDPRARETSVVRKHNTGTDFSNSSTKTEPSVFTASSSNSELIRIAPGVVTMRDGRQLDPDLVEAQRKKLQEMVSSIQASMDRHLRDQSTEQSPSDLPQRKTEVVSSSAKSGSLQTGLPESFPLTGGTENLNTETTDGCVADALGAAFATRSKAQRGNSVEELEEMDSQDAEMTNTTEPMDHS
UniProt Q92878: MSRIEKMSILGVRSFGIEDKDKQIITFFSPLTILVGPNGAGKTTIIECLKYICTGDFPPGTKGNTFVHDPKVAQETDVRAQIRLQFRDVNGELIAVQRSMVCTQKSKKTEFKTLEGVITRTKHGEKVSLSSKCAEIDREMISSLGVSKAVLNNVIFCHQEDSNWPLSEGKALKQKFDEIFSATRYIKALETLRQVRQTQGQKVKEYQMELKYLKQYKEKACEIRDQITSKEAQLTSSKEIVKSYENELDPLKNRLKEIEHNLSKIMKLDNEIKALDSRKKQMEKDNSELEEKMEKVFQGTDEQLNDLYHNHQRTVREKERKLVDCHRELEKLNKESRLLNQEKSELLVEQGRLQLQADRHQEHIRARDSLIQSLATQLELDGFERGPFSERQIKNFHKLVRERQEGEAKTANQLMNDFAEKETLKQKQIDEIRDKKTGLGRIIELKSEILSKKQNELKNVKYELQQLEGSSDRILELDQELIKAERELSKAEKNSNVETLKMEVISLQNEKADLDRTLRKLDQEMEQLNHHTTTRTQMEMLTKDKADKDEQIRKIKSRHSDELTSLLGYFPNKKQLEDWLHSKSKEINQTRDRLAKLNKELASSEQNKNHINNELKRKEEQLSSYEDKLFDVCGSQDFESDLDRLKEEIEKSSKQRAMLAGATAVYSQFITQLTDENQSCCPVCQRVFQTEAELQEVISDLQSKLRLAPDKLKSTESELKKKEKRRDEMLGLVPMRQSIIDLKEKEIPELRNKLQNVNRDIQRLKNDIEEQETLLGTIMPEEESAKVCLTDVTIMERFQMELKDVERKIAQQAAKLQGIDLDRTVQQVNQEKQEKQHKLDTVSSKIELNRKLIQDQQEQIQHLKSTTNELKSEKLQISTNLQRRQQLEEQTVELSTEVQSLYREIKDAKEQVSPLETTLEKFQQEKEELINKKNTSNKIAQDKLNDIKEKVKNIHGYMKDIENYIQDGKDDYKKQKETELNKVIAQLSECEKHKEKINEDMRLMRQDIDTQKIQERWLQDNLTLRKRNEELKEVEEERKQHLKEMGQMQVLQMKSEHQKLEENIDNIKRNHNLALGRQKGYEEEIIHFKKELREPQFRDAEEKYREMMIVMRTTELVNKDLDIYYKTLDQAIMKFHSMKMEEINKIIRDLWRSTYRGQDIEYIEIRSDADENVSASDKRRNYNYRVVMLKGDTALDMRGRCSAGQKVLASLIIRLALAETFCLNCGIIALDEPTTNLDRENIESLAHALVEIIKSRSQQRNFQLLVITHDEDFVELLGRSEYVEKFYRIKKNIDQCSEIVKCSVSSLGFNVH
UniProt Q969G6: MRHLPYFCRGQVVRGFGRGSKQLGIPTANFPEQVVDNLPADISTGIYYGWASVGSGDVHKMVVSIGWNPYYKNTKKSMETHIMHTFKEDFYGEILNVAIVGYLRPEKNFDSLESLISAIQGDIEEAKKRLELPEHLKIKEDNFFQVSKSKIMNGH
UniProt Q96FJ0: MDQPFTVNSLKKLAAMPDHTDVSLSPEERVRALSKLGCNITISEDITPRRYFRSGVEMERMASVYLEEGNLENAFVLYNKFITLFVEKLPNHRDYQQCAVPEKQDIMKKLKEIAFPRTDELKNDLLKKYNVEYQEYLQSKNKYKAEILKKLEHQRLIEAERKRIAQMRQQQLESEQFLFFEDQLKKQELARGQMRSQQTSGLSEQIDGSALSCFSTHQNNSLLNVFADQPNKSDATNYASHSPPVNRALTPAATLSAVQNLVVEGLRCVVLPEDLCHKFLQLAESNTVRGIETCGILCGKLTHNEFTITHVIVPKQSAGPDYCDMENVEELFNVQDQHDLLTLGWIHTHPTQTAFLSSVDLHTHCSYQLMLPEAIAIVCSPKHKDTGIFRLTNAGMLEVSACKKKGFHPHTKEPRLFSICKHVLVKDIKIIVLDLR
UniProt Q93009, whole entry, looked up: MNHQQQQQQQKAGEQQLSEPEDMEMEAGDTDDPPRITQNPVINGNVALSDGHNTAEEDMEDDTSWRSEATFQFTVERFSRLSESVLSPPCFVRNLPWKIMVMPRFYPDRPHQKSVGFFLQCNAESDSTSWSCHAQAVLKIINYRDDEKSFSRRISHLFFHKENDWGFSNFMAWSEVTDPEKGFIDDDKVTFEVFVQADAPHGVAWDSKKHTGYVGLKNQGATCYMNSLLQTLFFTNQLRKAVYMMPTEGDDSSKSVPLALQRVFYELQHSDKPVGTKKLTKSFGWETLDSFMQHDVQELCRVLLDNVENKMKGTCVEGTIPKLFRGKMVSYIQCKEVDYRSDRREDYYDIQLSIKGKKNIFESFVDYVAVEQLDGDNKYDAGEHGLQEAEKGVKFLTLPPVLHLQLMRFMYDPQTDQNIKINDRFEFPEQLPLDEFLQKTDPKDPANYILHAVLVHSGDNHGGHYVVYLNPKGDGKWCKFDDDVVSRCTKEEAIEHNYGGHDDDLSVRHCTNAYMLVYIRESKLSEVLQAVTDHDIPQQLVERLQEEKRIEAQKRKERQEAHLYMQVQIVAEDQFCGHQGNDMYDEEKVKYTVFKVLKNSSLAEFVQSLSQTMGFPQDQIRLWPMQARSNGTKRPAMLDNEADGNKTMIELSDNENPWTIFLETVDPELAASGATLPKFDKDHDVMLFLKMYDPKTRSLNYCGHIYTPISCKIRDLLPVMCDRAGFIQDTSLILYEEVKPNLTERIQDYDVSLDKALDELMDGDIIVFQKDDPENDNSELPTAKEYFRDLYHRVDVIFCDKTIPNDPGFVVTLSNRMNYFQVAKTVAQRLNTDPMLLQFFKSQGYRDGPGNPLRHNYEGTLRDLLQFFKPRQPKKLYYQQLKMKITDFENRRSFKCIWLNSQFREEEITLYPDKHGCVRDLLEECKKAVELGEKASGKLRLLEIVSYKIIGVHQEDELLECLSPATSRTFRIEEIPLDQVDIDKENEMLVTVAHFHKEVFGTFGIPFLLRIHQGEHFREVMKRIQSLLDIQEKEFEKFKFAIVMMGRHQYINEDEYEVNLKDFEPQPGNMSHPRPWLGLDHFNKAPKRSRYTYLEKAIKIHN
UniProt Q8WW01: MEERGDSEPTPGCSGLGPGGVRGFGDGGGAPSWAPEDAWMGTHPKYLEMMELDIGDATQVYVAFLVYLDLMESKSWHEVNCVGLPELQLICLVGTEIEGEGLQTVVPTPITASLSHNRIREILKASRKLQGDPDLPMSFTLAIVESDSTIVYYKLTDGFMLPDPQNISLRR
UniProt Q96D53: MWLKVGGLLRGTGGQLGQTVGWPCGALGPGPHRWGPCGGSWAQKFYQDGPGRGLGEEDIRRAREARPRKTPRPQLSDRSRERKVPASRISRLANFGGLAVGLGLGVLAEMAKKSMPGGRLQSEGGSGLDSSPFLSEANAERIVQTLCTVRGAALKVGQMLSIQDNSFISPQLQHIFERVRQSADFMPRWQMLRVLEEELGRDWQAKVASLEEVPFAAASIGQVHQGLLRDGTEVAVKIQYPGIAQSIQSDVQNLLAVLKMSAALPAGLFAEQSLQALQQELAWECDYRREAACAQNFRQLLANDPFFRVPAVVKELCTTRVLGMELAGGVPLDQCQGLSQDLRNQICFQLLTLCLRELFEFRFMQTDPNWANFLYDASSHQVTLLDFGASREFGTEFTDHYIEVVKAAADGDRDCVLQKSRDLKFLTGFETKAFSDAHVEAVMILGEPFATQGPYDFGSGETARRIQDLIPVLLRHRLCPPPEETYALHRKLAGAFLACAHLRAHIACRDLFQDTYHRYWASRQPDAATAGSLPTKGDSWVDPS
UniProt Q8WUF8: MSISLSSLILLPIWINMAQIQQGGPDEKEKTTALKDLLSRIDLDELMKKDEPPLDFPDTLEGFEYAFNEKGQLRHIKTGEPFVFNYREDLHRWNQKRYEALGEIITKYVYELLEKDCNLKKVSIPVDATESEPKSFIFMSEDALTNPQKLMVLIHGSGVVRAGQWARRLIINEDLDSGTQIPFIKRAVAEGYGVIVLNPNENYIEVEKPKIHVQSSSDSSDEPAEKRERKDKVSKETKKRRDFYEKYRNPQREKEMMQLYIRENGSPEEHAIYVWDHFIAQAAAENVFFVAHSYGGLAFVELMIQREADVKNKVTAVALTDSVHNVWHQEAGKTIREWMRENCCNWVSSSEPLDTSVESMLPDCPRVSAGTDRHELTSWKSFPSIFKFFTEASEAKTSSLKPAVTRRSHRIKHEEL

± gives the standard deviation of the averaged measurements. Some of the results follow.

Compound in this test: Nc1nc2c(ncn2[C@@H]2O[C@H](COP(=O)(O)OP(=O)(O)OP(=O)(O)O)[C@@H](O)[C@H]2O)c(=O)[nH]1 [guanosine triphosphate]
The experiment in a line: NP40-soluble protein abundance relative to vehicle (solubility fold change) (ratio); higher = more soluble protein in presence of GTP. In a few lines:
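Jurkat crude lysate (Dounce-homogenised) was treated with eight concentrations from 0.1 to 10 mM for 10 min at room temperature, then 3 min at 37 °C. It was solubilised with 0.8% NP40 and benzonase (60 min, 4 °C) and ultracentrifuged, and the supernatant was TMT-labelled for LC-MS/MS. Intensities were vsn-normalised, and the value is the fold change against the NP40-processed vehicle per replicate, from three independent experiments.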

In the case of UniProt Q96EK5, the NP40-soluble protein abundance reads like this: (concentration: 0.1mM) 1.06 ± 0.052; (concentration: 0.5mM) 1.01 ± 0.053; (concentration: 1mM) 1.018 ± 0.0048; (concentration: 2mM) 0.969 ± 0.026; (concentration: 4mM) 0.973 ± 0.047; (concentration: 6mM) 0.934 ± 0.034. The NP40-soluble protein abundance turned out to be 0.927 ± 0.025 (concentration: 8mM) and 0.888 ± 0.079 (concentration: 10mM).
On to DCPS (UniProt Q96C86), for which the NP40-soluble protein abundance (concentration: 0.1mM) was 0.983 ± 0.019; the NP40-soluble protein abundance (concentration: 0.5mM) came to 1.01 ± 0.0029; the NP40-soluble protein abundance (concentration: 1mM) came to 0.922 ± 0.045; the NP40-soluble protein abundance (concentration: 2mM) was 0.908 ± 0.046; the NP40-soluble protein abundance (concentration: 4mM) was 0.878 ± 0.056; the NP40-soluble protein abundance (concentration: 6mM) was determined as 0.889 ± 0.063. For the same target, the NP40-soluble protein abundance runs as follows: (concentration: 8mM) 0.868 ± 0.053; (concentration: 10mM) 0.857 ± 0.076.
For the target UniProt Q92572, the NP40-soluble protein abundance runs as follows: (concentration: 0.1mM) 1.03 ± 0.088; (concentration: 0.5mM) 1 ± 0.054; (concentration: 1mM) 1.03 ± 0.057; (concentration: 2mM) 0.978 ± 0.051; (concentration: 4mM) 0.997 ± 0.053; (concentration: 6mM) 0.976 ± 0.054. The NP40-soluble protein abundance (concentration: 8mM) worked out at 1 ± 0.079 and the NP40-soluble protein abundance (concentration: 10mM) worked out at 0.966 ± 0.051.
On to VCPIP1 (UniProt Q96JH7), for which the NP40-soluble protein abundance came out at 1.02 ± 0.016 (concentration: 0.1mM); 1.07 ± 0.036 (concentration: 0.5mM); 1.07 ± 0.025 (concentration: 1mM); 1.08 ± 0.036 (concentration: 2mM); 1.062 ± 0.0062 (concentration: 4mM); 1.04 ± 0.039 (concentration: 6mM). In addition, the NP40-soluble protein abundance is 1.04 ± 0.059 (concentration: 8mM) and 1.04 ± 0.017 (concentration: 10mM).
In the case of UniProt Q92878 and related entries, the NP40-soluble protein abundance turned out to be 1.05 ± 0.023 (concentration: 0.1mM); 1.07 ± 0.064 (concentration: 0.5mM); 1.05 ± 0.043 (concentration: 1mM); 1.03 ± 0.059 (concentration: 2mM); 1.03 ± 0.047 (concentration: 4mM); 1.04 ± 0.052 (concentration: 6mM). The NP40-soluble protein abundance amounted to 1.06 ± 0.1 (concentration: 8mM) and 1.01 ± 0.072 (concentration: 10mM).
Turning to RFK (UniProt Q969G6), the NP40-soluble protein abundance runs as follows: (concentration: 0.1mM) 0.9524 ± 0.0088; (concentration: 0.5mM) 1 ± 0.013; (concentration: 1mM) 0.974 ± 0.025; (concentration: 2mM) 0.918 ± 0.042; (concentration: 4mM) 0.866 ± 0.049; (concentration: 6mM) 0.912 ± 0.071. Moreover, the NP40-soluble protein abundance by setting is: (concentration: 8mM) 0.873 ± 0.068; (concentration: 10mM) 0.853 ± 0.042.
UniProt Q92600 and related entries: the NP40-soluble protein abundance is, setting by setting: (concentration: 0.1mM) 0.829 ± 0.1; (concentration: 0.5mM) 0.907 ± 0.02; (concentration: 1mM) 0.952 ± 0.086; (concentration: 2mM) 1.1 ± 0.23; (concentration: 4mM) 1.21 ± 0.43; (concentration: 6mM) 1.37 ± 0.26. Further, the NP40-soluble protein abundance was 1.07 ± 0.014 (concentration: 8mM) and 1.52 ± 0.37 (concentration: 10mM).
With UniProt Q8WVT3, the NP40-soluble protein abundance by setting is: (concentration: 0.1mM) 1.05 ± 0.031; (concentration: 0.5mM) 1.01 ± 0.022; (concentration: 1mM) 1.02 ± 0.03; (concentration: 2mM) 1 ± 0.029; (concentration: 4mM) 0.998 ± 0.05; (concentration: 6mM) 0.993 ± 0.019. Also, the NP40-soluble protein abundance is, setting by setting: (concentration: 8mM) 1.006 ± 0.0081; (concentration: 10mM) 0.985 ± 0.046.
Turning to UniProt Q96FJ0 and related entries, the NP40-soluble protein abundance by setting is: (concentration: 0.1mM) 0.973 ± 0.075; (concentration: 0.5mM) 0.991 ± 0.094; (concentration: 1mM) 0.974 ± 0.1; (concentration: 2mM) 0.998 ± 0.1; (concentration: 4mM) 0.993 ± 0.099; (concentration: 6mM) 0.999 ± 0.068. Moreover, the NP40-soluble protein abundance was found to be 1.05 ± 0.12 (concentration: 8mM) and 1.03 ± 0.14 (concentration: 10mM).
On to USP7 (UniProt Q93009), for which the NP40-soluble protein abundance by setting is: (concentration: 0.1mM) 1.05 ± 0.048; (concentration: 0.5mM) 1.07 ± 0.086; (concentration: 1mM) 0.997 ± 0.049; (concentration: 2mM) 1.01 ± 0.085; (concentration: 4mM) 1 ± 0.073; (concentration: 6mM) 1 ± 0.066. Further, the NP40-soluble protein abundance (concentration: 8mM) came to 0.979 ± 0.049 and the NP40-soluble protein abundance (concentration: 10mM) was found to be 0.937 ± 0.077.
For TSEN15 (UniProt Q8WW01), the NP40-soluble protein abundance is, setting by setting: (concentration: 0.1mM) 0.978 ± 0.12; (concentration: 0.5mM) 0.914 ± 0.019; (concentration: 1mM) 0.939 ± 0.065; (concentration: 2mM) 0.989 ± 0.078; (concentration: 4mM) 0.969 ± 0.052; (concentration: 6mM) 0.905 ± 0.067. Besides, the NP40-soluble protein abundance is, setting by setting: (concentration: 8mM) 0.93 ± 0.086; (concentration: 10mM) 0.916 ± 0.068.
Consider UniProt Q96D53 and related entries, for which the NP40-soluble protein abundance amounted to 0.865 ± 0.041 (concentration: 0.1mM); 1.02 ± 0.03 (concentration: 0.5mM); 0.983 ± 0.051 (concentration: 1mM); 0.982 ± 0.022 (concentration: 2mM); 0.965 ± 0.14 (concentration: 4mM); 1.02 ± 0.14 (concentration: 6mM). The NP40-soluble protein abundance (concentration: 8mM) is 0.854 ± 0.052 and the NP40-soluble protein abundance (concentration: 10mM) stood at 0.871 ± 0.019.
EXOC4 (UniProt Q96A65): the NP40-soluble protein abundance (concentration: 0.1mM) worked out at 1.037 ± 0.0064; the NP40-soluble protein abundance (concentration: 0.5mM) amounted to 1.04 ± 0.031; the NP40-soluble protein abundance (concentration: 1mM) was found to be 1.01 ± 0.036; the NP40-soluble protein abundance (concentration: 2mM) stood at 1.01 ± 0.063; the NP40-soluble protein abundance (concentration: 4mM) was 1.03 ± 0.048; the NP40-soluble protein abundance (concentration: 6mM) worked out at 0.988 ± 0.078. Besides, the NP40-soluble protein abundance was 1.03 ± 0.017 (concentration: 8mM) and 0.995 ± 0.045 (concentration: 10mM).
Take UniProt Q8WUF8 and related entries: the NP40-soluble protein abundance turned out to be 1.03 ± 0.14 (concentration: 0.1mM); 1.03 ± 0.051 (concentration: 0.5mM); 0.978 ± 0.14 (concentration: 1mM); 1 ± 0.044 (concentration: 2mM); 0.966 ± 0.028 (concentration: 4mM); 1.01 ± 0.014 (concentration: 6mM). Further, the NP40-soluble protein abundance (concentration: 8mM) is 0.959 ± 0.021 and the NP40-soluble protein abundance (concentration: 10mM) worked out at 0.99 ± 0.023.
UniProt Q96D71-3|Q96D71: the NP40-soluble protein abundance is 0.912 ± 0.034 (concentration: 0.1mM); 0.932 ± 0.061 (concentration: 0.5mM); 0.973 ± 0.047 (concentration: 1mM); 0.89 ± 0.05 (concentration: 2mM); 0.924 ± 0.023 (concentration: 4mM); 0.955 ± 0.022 (concentration: 6mM). For the same target, the NP40-soluble protein abundance runs as follows: (concentration: 8mM) 1.03 ± 0.053; (concentration: 10mM) 1.05 ± 0.12.
